Assay results published in paper PMC7262597.
These are yes or no findings as the source states them, for the method shown. Binding seen in cells or lysates may run through a third protein. Some entries that bind do so weakly or less than the wild type. Sequences can lack the tags named with a protein.

Amino acid sequences for entries named in this document (tags omitted).
UniProt Q9W2S2: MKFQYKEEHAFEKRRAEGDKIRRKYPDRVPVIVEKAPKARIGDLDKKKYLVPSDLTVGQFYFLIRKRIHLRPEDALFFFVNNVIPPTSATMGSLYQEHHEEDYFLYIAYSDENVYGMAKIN

Biological target: T1, Sir2-myc (Drosophila) (UniProt Q9VK34)
T1 sequence: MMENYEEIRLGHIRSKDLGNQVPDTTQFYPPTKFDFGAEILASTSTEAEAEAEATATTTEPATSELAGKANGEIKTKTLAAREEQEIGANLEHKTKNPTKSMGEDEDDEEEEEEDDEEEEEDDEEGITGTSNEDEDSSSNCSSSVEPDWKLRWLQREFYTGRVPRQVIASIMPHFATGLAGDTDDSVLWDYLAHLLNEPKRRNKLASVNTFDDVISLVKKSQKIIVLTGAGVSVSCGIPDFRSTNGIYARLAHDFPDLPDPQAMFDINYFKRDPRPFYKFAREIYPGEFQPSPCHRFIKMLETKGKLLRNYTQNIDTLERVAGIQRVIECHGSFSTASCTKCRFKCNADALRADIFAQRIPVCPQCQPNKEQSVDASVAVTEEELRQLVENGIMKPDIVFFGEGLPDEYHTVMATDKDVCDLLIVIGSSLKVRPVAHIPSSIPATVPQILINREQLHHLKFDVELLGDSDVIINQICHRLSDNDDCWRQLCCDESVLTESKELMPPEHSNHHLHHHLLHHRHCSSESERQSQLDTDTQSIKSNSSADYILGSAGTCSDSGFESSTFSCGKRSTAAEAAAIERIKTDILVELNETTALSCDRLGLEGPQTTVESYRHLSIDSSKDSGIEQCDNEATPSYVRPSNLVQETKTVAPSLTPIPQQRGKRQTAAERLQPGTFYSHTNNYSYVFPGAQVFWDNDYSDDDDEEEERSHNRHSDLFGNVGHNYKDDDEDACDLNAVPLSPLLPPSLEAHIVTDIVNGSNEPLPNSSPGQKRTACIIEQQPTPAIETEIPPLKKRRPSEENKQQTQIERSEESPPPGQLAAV
Assay: co-IP; Sir2-myc immunoprecipitated with anti-myc from lysates (1 mg protein, Nuclear lysis buffer) of fed and starved (4 h in 20% sucrose) larvae, 2 h at 4°C; GFP-Atg8a detected by blot

Substance: GFP-Atg8a (from UniProt Q9W2S2 1-121)
- binding: binds
